In experiment [1] the target is T1, CAP-D3 (condensin II subunit), yeast two-hybrid fusion (Arabidopsis thaliana) (UniProt O24610).
T1 sequence: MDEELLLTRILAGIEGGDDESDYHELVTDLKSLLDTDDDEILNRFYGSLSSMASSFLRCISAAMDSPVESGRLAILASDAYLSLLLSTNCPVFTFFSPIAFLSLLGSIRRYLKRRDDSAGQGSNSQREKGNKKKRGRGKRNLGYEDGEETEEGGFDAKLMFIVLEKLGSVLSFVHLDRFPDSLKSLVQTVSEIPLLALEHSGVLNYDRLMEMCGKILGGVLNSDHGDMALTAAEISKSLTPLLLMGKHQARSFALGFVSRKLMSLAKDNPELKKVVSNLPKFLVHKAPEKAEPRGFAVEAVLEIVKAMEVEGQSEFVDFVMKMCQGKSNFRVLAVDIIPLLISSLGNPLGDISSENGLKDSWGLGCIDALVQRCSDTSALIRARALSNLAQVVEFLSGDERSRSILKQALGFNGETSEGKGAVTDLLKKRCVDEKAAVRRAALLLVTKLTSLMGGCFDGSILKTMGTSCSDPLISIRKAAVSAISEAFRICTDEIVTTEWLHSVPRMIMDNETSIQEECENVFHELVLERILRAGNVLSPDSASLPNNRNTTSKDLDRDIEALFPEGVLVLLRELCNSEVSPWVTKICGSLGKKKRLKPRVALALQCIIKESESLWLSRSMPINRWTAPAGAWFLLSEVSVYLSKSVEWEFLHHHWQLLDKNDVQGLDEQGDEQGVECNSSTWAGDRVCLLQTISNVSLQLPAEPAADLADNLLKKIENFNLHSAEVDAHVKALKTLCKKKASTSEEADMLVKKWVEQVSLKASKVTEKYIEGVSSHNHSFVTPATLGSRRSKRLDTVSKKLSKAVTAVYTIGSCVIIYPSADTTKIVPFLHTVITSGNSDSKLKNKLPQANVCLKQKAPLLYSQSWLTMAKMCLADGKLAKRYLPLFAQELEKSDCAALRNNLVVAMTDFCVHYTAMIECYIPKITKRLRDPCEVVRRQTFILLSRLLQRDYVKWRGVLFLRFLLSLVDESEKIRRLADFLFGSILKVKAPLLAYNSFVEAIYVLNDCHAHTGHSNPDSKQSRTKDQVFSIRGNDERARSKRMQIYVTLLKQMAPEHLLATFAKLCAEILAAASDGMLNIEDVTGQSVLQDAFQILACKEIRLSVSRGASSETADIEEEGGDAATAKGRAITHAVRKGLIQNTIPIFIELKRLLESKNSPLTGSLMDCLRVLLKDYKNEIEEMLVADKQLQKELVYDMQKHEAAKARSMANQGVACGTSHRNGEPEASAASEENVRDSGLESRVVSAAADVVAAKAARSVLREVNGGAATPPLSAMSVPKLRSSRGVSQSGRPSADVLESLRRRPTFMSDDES
Briefly: two-hybrid; bait and prey plasmids co-transformed into yeast strain Y2H Gold; interaction checked on SD medium minus Trp, Leu and His; 3-5 days at 28 °C.

The target of experiment [2] is T2, CAP-D2 (condensin I subunit), yeast two-hybrid fusion (Arabidopsis thaliana).
T2 sequence: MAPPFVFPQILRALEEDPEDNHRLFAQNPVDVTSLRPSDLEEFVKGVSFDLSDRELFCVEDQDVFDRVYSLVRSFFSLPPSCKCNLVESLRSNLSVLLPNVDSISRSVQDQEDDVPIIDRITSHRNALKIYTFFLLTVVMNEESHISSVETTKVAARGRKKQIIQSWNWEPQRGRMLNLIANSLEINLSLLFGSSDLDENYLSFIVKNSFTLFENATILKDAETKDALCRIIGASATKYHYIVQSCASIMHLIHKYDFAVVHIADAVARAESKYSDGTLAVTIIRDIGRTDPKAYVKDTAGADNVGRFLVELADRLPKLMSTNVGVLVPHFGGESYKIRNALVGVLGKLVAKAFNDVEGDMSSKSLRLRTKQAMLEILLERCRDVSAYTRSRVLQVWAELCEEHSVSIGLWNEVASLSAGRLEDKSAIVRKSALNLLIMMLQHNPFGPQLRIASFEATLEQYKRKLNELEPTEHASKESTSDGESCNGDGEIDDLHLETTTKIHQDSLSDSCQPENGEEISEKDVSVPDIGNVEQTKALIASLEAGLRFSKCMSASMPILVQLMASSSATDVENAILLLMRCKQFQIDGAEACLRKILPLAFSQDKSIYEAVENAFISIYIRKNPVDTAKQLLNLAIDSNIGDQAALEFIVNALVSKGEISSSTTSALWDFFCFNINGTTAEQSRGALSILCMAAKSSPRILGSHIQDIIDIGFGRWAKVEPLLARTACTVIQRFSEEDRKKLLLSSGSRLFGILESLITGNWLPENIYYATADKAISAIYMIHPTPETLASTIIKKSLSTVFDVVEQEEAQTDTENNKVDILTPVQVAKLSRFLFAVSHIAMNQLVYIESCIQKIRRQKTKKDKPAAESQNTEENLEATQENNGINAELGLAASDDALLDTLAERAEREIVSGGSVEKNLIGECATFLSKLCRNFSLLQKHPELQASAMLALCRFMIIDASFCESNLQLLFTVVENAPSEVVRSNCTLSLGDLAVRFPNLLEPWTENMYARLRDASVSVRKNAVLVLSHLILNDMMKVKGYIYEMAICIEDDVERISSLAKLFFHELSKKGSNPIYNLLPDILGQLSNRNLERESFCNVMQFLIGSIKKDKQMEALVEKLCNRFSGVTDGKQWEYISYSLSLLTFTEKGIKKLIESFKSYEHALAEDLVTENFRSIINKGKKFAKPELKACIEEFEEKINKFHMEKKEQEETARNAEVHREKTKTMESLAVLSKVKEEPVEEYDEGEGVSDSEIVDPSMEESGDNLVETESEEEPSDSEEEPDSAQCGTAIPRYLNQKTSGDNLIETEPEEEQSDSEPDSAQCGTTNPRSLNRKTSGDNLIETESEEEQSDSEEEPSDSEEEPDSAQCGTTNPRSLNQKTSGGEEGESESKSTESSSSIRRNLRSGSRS
Described as above.

No constants are given. Whether binding was seen depends on the method and setting. Some results given as binding are weak or reduced against the parent protein; the word gives no strength. Where a sequence is shown, tags or fusion partners need not be part of it.

B1: CAP-H2 (Chromosome-Associated Protein H2, condensin II kleisin subunit), yeast two-hybrid fusion (protein, UniProt Q9LUR0 1-683)
chain: MTSHGGGEVRGERIHTVQPERDLVANWEVDLSEKLEEYLLKICSGEITGNEEDGQIPVNFAEAALLLQGSVQVYSKKVEYLYNLVLRTLEFLSKQRDQEQSKGTSNENEASSSRQVDEEENDLFWNVDDIPVDTKNRLDSSVGGDTCPSQFVKPPANLVVLEGDCLDTSGDGGELESYLLATTHLYRDFILLDPCDAVAVNEFLGDNYGGKGRNSAHRGSSVRKSFHSSVGRSGGSARKSSVGKNQGTNVHLSPICGNGPNDQNCDQGSQPPVFEDNDHGFDMDNEYGGAMDFSDTDADEDDPWKPLNPYEPGKLKVKPFKKVKILKKIGWSITKDHMTSMFPLARPNGPISSELIEIWKMHGCASKDEQASQDIPYYEKLREMLVNGGNQPCGANGNYNDNDKDNHDEANNGDFHDFGEHDGDDAEHPFMDEDVLNMNDGGAAEFHNYDGFENGESNCQESLEDLCRSHLDALLANIAKSEKQTDLAARVSTWKQKIEQNLEEQELHPPFDIQEYGDRIINKLTVEESGNVETFTDLMKDQEKHEVARAFSALLQLVNNGDVDLEKPGNSTNEPMCYTAVKPFSVRLLKVHNRKNEKRGIHLPQKRAKSPITKGKSHESPPPKKRNTCSVSSQTRKVSLKISKINGVGVRCTPNSKKRRKGRSDDVTEVTEVASIEKSLGKL
Regarding B1, the binding result in experiment [1] is “binds”.

B2: CAP-H (Chromosome-Associated Protein H, condensin I kleisin subunit), yeast two-hybrid fusion (protein, UniProt Q564K3 1-671)
chain: MDESLTPNPKQKPASTTTRIQAPTSPFFLGSNDDRLEREQARAARAAASRRRSVIFARGSQPETESDPCFDKQQILELFQNCIKLASENKINQKNTWELNLIDHLCEIIKVEDENNTETNFQKASCTLEAGVKIYSMRVDSVHSEAYKVLGGITRAGHDDGGDHEDAAGAVENATNQKKQPEKKISPLSTLEPSFDALNVKKFDVAFAVDPLYHQTSAQFDEGGAKGLLLNNLGVYGGCQVLFDSQEIPGKLVSSANKHDKSETIDLSFVKECVEQMVLNMRKKDEIVPSLRAIINQFDEENQRPSDTFSCGQQTTESFDISHGNDASYADDDEGYENFGTSFDYEGQSGDVDENFGPNEAEPIYSNFHEEVEPASLQDMDSDDRLENVDDYLFLSLGISSKQNSWAGPDHWKYRKTKGPDVQPASEIKSSPPAKKTRKKKQAEPELDFAKALEEEMPDIFAPPKNPKTLLLPASRTPCQTKLPEDCHYQPENLIKLFLLPNVMCLGRRRRKNSGETSRQQPDDYEHGESWGNDNVYDDDDGPFDDNENDQSDAEDTNTLISQPRQVNKIDVQYDKASKQVDVQVLKETLWECLQESHQPPIQDEEHQQEPPESRSFKVLLASFPDDCQAAERTQDISPHLCFICLLHLANEHNLSLIGSQNLDDLTIHLA
On to B2, for which, in experiment [2], the binding result is on record as “binds”.

Source of the values: publication PMC12454742.
